This assay has as its system leukemia L1210. The experiment in a line: Leukemia L1210 in vivo, measurement of survival time (Table XII). On the set-up: species or system B6 D2 Fl (C 57 Bl/6×DBA/2) Fl mice; MST: unit not given here. Particulars: for Death interval (mice) / ILS % / MST: 10^5 cells, i.p. Here is the method: The following pharmacological trials relate to the effects of the compounds of the invention on leukemia L1210 in vivo.
G. Proc. Nat. Acad. Sci. 1972, 69, 1042-1047 and Schepartz S., Screening 1971, Cancer Chemother. Part 3; Vol. 2, p. 3].
The properties were determined by the curative action inoculated experimental leukemia L1210. This leukemia was maintained on B6 D2 Fl (C 57 Bl/6×DBA/2) Fl mice in the proportion of 6 or 10 mice per experimental batch. The compounds to be tested were injected by the intraperitoneal route one or several days after inoculation of the cells (1 injection only). […] The death interval was determined, the first figure of the Table indicating the date of the first mouse death and the second the date of the last mouse death. The mean survival time was also measured (MST). A characteristic value is the percentage of increased life span (ILS %). This value (Cancer. Res. 1971, 31, 1883-1887) is the ratio: [formula] where S^t =survival of treated animals and
S^c =survival of control animals.

Turning to `COc1ccc2[nH]c3c(C)c4ccncc4c(C)c3c2c1` [Compound 9-MeO, 9-methoxy-ellipticine, reference compound], the “Death interval (mice)” value was 10-13 (17.5 mg/kg, day +1); 15-21 (20 mg/kg, day +2); 18-26 (20 mg/kg, day +3); 11-13 (35 mg/kg, day +1); 13-15 (87.5 mg/kg, day +1). For the same molecule, the ILS % (17.5 mg/kg, day +1) was determined as 6.6%; the ILS % (20 mg/kg, day +2) stood at 51.7%; the ILS % (20 mg/kg, day +3) is 80%; the ILS % (35 mg/kg, day +1) was determined as 7.6%; the ILS % (87.5 mg/kg, day +1) was 26.6%. Moreover, the MST reads like this: (17.5 mg/kg, day +1) 11.2; (20 mg/kg, day +2) 17.6; (20 mg/kg, day +3) 20.9; (35 mg/kg, day +1) 11.3; (87.5 mg/kg, day +1) 13.3. The “increase in the life span (ILS)” value (text: dose closest to the toxic dose, same conditions) is on record as 26%.

These data come from US4434290A, “Pyrido (4,3-B) carbazoles substituted in the 1 position by a polyamine chain” (priority 1978, dated 1984).
